Results are given in words; binding and its absence hold for the method and conditions named. In cells and extracts the contact can be indirect. Some binding calls cover weakened binding; strength is not graded here.
Columns and labels:
human Keratin 8 (human) = human Keratin 8 (human) (UniProt P05787); test: FRET or BRET; wide-field FRET on fixed, immunostained CHO-K1 cells transiently (co-)transfected with K8 or K18 with or without p62-H1 or p62-H2; AF488 (K8/18) to rhodamine (p62) on secondary antibodies; static FRET corrected for bleed-through and crosstalk and normalized to acceptor and donor fluorescence; spatial resolution approximately 20 nm
human Keratin 18 (human) = target: T1, human Keratin 18 (human) (UniProt P05783); test: as above
T1 sequence: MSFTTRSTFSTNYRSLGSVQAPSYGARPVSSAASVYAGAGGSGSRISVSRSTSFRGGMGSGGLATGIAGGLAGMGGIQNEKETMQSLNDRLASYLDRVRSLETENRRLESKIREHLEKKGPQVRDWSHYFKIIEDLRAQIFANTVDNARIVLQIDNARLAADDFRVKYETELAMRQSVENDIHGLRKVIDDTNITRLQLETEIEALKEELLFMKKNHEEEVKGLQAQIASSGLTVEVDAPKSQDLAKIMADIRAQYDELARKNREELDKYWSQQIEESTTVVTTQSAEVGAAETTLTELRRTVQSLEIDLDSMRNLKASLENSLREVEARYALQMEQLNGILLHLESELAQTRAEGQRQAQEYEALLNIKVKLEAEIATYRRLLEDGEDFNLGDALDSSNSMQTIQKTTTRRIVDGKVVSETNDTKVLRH

Amino acid sequences for entries named in this document (tags omitted).
UniProt P05787: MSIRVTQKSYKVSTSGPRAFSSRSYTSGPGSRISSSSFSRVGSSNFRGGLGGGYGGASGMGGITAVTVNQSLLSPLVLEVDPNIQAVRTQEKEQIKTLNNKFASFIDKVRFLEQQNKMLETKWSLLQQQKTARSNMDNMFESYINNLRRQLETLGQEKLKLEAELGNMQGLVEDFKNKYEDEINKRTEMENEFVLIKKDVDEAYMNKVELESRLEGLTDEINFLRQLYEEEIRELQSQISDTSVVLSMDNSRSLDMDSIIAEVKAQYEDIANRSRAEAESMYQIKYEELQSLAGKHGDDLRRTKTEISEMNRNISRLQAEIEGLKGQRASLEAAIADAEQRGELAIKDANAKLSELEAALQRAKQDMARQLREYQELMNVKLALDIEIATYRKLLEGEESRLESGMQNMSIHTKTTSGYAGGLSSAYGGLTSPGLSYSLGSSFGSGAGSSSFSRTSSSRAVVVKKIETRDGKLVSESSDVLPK

binding (human Keratin 8 (human)): binds
binding (human Keratin 18 (human)): binds
Substance: human p62 isoform-2 (p62/Sequestosome-1, SQSTM1) (from UniProt Q13501-2 1-356)

From article PMC8227998
